# Library screen at single concentrations

From ChEMBL document CHEMBL3988442, “University of Dundee, Small-Polar-MMV Screening Library” (2021).

A: 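Growth of Mycobacterium tuberculosis over 3 days (7H9 medium with glucose and tyloxapol); the read-out is not stated. Tested at 50 µM. Higher reads as more growth inhibition (inferred: compounds with an IC50 in retests scored well above the rest). About 69,000 compounds were tested under these conditions; 1.1% (about 760) showed 50% or more at least once.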
B: 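Growth of Mycobacterium tuberculosis over 4 days (cholesterol / DPPC medium with tyloxapol); the read-out is not stated. Compounds at 50 µM. Direction is inferred from retests: higher values go with more growth inhibition. Size under these conditions: about 69,000 compounds, about 370 of them at 50% or above in at least one test.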

Values are the deposited “Percent Effect”, in %.
The record does not define 0% and 100%; most values in the screen are far below 50% and negative numbers occur (in some assays of this library far below -100).
Compounds were drawn at random from those tested, without regard to their results.
Two or more numbers in one place are separate tests of the same structure; such repeats can differ widely.

* CN(Cc1nc(Cc2cccc(C(F)(F)F)c2)no1)CC1CCCCO1 (stereo not drawn) : A: 23.94% and 33.75%; B: 41.58%
* COc1c(C2CCCN2C(=O)c2sc(C)nc2C)c(C)nn1C (stereo not drawn) : A: -24.09%; B: -11.14%
* [H][C@]12CC[C@]([H])(CN(C(=O)N(C)C)C1)N(C(=O)CCCn1cncn1)C2 : A: -21.55%; B: 29.52%
* COCCNc1nc2c(c(N3CCn4nc(C)cc4C3)n1)CCNCC2 : A: -9.715% and 11.46%; B: 22%
* CN(CCSc1nncn1CC(F)(F)F)c1ccccc1 : A: 13.86%; B: 2.13%
* CN(CCc1cn[nH]c1)Cc1nc(Cc2cccc(C(F)(F)F)c2)no1 : A: 38.57%; B: 12.08%
* CC(C)N1CCCC(C(=O)N2CCN(c3cnn(C)c(=O)c3)CC2)C1 (stereo not drawn) : A: -10.69%; B: -14.05% and -0.868%
* COc1ccc(CN2CCCN(C(=O)C(C)n3ccnc3)CC2)cc1 (stereo not drawn) : A: 14.72%; B: -0.8596%
* Cc1cnnn1Cc1nnn2c1CN(Cc1ccccn1)CCC2.O=C(O)C(F)(F)F : A: -9.212% and 0.606%; B: -0.5891%
* [H][C@]12C[C@H](C(=O)NCC3CC3)N(C)[C@@]1([H])CN(Cc1ccco1)C2 : A: -18.47%; B: -4.926%
* COc1coc(C(=O)Nc2nc(-c3ccccn3)cs2)cc1=O : A: 8.716%; B: -14.14%
* CC(C)(C)CNCC1(O)CCCN(Cc2ccccc2F)C1=O (stereo not drawn) : A: 21.52%; B: 1.467%
* O=S(=O)(C1CC1)N1CCC2(CC1)COC(COc1ccccn1)C2 (stereo not drawn) : A: -3.12%; B: -10.71%
* Cc1cc(=O)[nH]c(=O)n1Cc1ncc(-c2ccccc2C(=O)O)s1 : A: -4.951%; B: -13.63%
* Cc1ccc(NC2CCN(C(=O)CCC3CCCO3)CC2)nn1 (stereo not drawn) : A: -24.31%; B: -22.36%
* COCC1CC2(CCN(c3cccc(C)n3)CC2)CN1C(C)C.O=C(O)C(F)(F)F.O=C(O)C(F)(F)F (stereo not drawn) : A: 5.482%; B: -18.9%
* CN(C)S(=O)(=O)N1CC[C@]2(C[C@H](Oc3ncccc3F)CO2)C1.O=C(O)C(F)(F)F : A: -7.609%; B: -2.988%
* CCOCC(=O)NCCC(O)c1ccoc1 (stereo not drawn) : A: 2.737%; B: 29.8%
* CCCn1nnnc1CN(CC)CC1COc2ccccc2O1 (stereo not drawn) : A: 8.484%; B: -0.3071%
* CCN1CCC2(CC1)C(=O)Nc1ccc(C(=O)NC)cc12.O=C(O)C(F)(F)F : A: -4.363%; B: 16.68%
* CC(C)COC(C)C(=O)NCCNS(C)(=O)=O (stereo not drawn) : A: 4.881%; B: -3.96%
* Cc1c(CN2CCCC(C(=O)c3ccc(C(C)(C)C)cc3)C2)cnn1C (stereo not drawn) : A: 27.38% and 18.31%; B: 30.12%
* CNC(=O)CN1CCC(CN(C)Cc2ccccc2N(C)C)CC1 : A: 31.4%; B: 17.05%
* Cc1cc(C)n(CC2CN(c3nnc(C)c(C)c3C#N)CCO2)n1 (stereo not drawn) : A: 34.32%; B: 15.03%
* CC[C@H](C)Nc1ncc(-c2ccn(C3CCN(C(C)=O)CC3)n2)cn1 : A: 22.39%; B: 4.01%
* O=C(CCC1CCCN(S(=O)(=O)C2CC2)C1)Nc1ccc(Cl)cc1 (stereo not drawn) : A: -14.06%; B: -25.73%
* Cc1cc(C)nc(N2CCCC2c2cccnc2)n1 (stereo not drawn) : A: -7.328% and -0.06591%; B: -7.579%
* COc1ccc(-c2cc(CN)ccc2F)c(OC)c1OC : A: -33.33% and 11.48%; B: -22.82% and 6.604%
* COc1ccc(CCC(=O)Nc2cccnc2N2CCCC2)cc1Br : A: -5.874%; B: -24.02%
* [H][C@]12CCN(C(=O)NC(C)C)C[C@@]1([H])OCCN(S(C)(=O)=O)C2 : A: 1.556%; B: -9.252%
* Cc1ccc(CNC(=O)CN2CCN(CC(O)C3CC3)CC2)cc1.Cl.Cl (stereo not drawn) : A: 24.21%; B: 8.085%
* [H][C@@]12COC(=O)N1CCN(C(=O)NC(C)C)C2 : A: -9.036% and -1.054%; B: 4.49%
* O=C(O)C(F)(F)F.O=C(O)C(F)(F)F.[H][C@@]12CCN(C)[C@@]1([H])CCN2Cc1cc(C)c(C)o1 : A: 6.322%; B: -1.526%
* O=C(CC1CCCO1)Nc1ccc2c(ccn2CCN2CCOCC2)c1 (stereo not drawn) : A: -4.837%; B: -19.07%
* O=S(=O)(NCC1CCN(c2cnccn2)CC1)C1CC1 : A: 25.66%; B: -16.68%
* CC(NC(=O)Nc1cccnc1N1CCOCC1)c1ccccc1 (stereo not drawn) : A: -17.9% and 15.35%; B: -19.19%
* CN1CC(=O)N(c2ccccc2)CC12CCN(C(=O)c1cccs1)C2.O=C(O)C(F)(F)F (stereo not drawn) : A: -19.11%; B: -29.74%
* O=C(O)C(F)(F)F.[H][C@@]12CCN(S(=O)(=O)C3CC3)[C@@]1([H])CCN2Cc1cccs1 : A: -7.266% and -8.156%; B: -24.36%
* CNS(=O)(=O)c1ccccc1N1CCN(C(C)C(=O)OC)CC1 (stereo not drawn) : A: 3.789% and 2.874%; B: -3.797%
* Fc1ccccc1-c1noc2c1CN(CCN1CCOCC1)CC2 : A: 7.361%; B: 14.63%

2 of the entries, repeated:

| SMILES | A | B |
|---|---|---|
| `CC(C)COC(C)C(=O)NCCNS(C)(=O)=O` (stereo not drawn) | 4.881 | -3.96 |
| `[H][C@@]12COC(=O)N1CCN(C(=O)NC(C)C)C2` | -9.036 and -1.054 | 4.49 |